Measured values: article PMC7666139
No constants are given. Whether binding was seen depends on the method and setting.

Protein sequences, listed by entry. Tags and fused reporters are not part of them. Residues count along the entry.
UniProt Q9NSI8, residues 163-224: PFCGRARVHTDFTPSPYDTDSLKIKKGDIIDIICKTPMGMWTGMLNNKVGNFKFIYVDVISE

Columns and labels:
[1] = molecular target: 6xHis-tagged HACS1 SH3 domain (human) (UniProt Q9NSI8); assay: SEC-MALS; 0.2 mM (2.0 mg/mL) reduced 6xHis-tagged SH3 domain; 5 mM Tris, 60 mM NaCl, 2.5 mM TCEP pH 7.7; AdvanceBio SEC300A column; both purified
[2] = molecular target: 6xHis-tagged HACS1 SH3 domain (human) (UniProt Q9NSI8); assay: NMR 15N relaxation (rotational correlation time); 0.3 mM reduced 15N-labeled 6xHis-tagged HACS1 SH3 domain, NMR buffer with 2.5 mM TCEP, 700 MHz; global fit of T1, T2 and heteronuclear NOE; both purified

binding [1]: no binding (tested: 0.2 mM)
Substance: 6xHis-tagged HACS1 SH3 domain (from UniProt Q9NSI8 163-224) (domain or fragment)
binding [2]: no binding (tested: 0.3 mM)
